Data source: PubChem BioAssay AID1224829 (NIAID, 2016)

Assay: 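Follow-up of TLR4-NF-kappaB regulators using six separate siRNAs for each gene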 (follow-up of hits)
Cell system: mouse RAW264.7 G9 macrophage reporter cells
Knock-down reagent: single siRNA against mouse genes, 100 nM
Duration: 2 days of siRNA knock-down, then 40 min of LPS before fixing
Challenge: LPS (Salmonella minnesota R595) at 10 ng/ml
Read-out: 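Imaging of GFP-p65 after 40 min of LPS; nuclear over perinuclear ring intensity ratio, scaled to plate median and non-targeting control wells, given as z-score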
Scale: p65 translocation z-score and gene median z-score, per vendor: higher = more nuclear NF-kappaB p65 after LPS
Call rule: 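An siRNA is called active when the mean z-score of its two replicates is above 2 or below -2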
Meaning of the calls: active = changed p65 translocation (either direction); inactive = no clear change
In all, the deposit lists about 3,800 reagents; below is an unselected part. 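Calls cover raised and lowered translocation; gene median uses one vendor's three siRNAs; qiagen siRNAs acted more weakly than ambion siRNAs.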 Reagents against one gene are numbered here.

"p65 translocation z-score, replicate mean","p65 translocation z-score, replicate 1","p65 translocation z-score, replicate 2","gene median z-score, per vendor",Call,gene knocked down,siRNA no.,siRNA vendor or control pool
-3.6,-4.74,-2.47,-1.74,active,Gxylt2,1,ambion single siRNA
-0.859,-1.11,-0.611,-1.74,inactive,Gxylt2,2,ambion single siRNA
-1.74,-1.74,,-1.74,inactive,Gxylt2,3,ambion single siRNA
-1.56,-1.31,-1.81,-1.37,inactive,Gxylt2,4,qiagen single siRNA
-0.767,-1.43,-0.103,-1.37,inactive,Gxylt2,5,qiagen single siRNA
,,,-1.37,inactive,Gxylt2,6,qiagen single siRNA
-2.2,-1.85,-2.54,0.641,active,Ufd1,1,ambion single siRNA
1,1.03,0.972,0.641,inactive,Ufd1,2,ambion single siRNA
1.52,2.73,0.311,0.641,inactive,Ufd1,3,ambion single siRNA
-4.99,-4.43,-5.55,-3.26,active,Ufd1,4,qiagen single siRNA
-2.85,-3.28,-2.41,-3.26,active,Ufd1,5,qiagen single siRNA
-3.08,-2.91,-3.24,-3.26,active,Ufd1,6,qiagen single siRNA
-0.0869,0.564,-0.738,-1.1,inactive,Mgat4b,1,ambion single siRNA
-4.41,-6.24,-2.59,-1.1,active,Mgat4b,2,ambion single siRNA
-0.813,-0.162,-1.46,-1.1,inactive,Mgat4b,3,ambion single siRNA
1.59,-0.676,3.86,-0.785,inactive,Mgat4b,4,qiagen single siRNA
-2.43,-0.894,-3.96,-0.785,active,Mgat4b,5,qiagen single siRNA
-0.595,-1.45,0.258,-0.785,inactive,Mgat4b,6,qiagen single siRNA

Next part, starting with the last 3 of the part before.
"p65 translocation z-score, replicate mean","p65 translocation z-score, replicate 1","p65 translocation z-score, replicate 2","gene median z-score, per vendor",Call,gene knocked down,siRNA no.,siRNA vendor or control pool
1.59,-0.676,3.86,-0.785,inactive,Mgat4b,4,qiagen single siRNA
-2.43,-0.894,-3.96,-0.785,active,Mgat4b,5,qiagen single siRNA
-0.595,-1.45,0.258,-0.785,inactive,Mgat4b,6,qiagen single siRNA
-0.722,0.146,-1.59,-1.71,inactive,Runx2,1,ambion single siRNA
-1.59,-0.395,-2.78,-1.71,inactive,Runx2,2,ambion single siRNA
-2.65,-3.47,-1.83,-1.71,active,Runx2,3,ambion single siRNA
-0.326,-1.15,0.497,-0.297,inactive,Runx2,4,qiagen single siRNA
-0.214,-0.62,0.192,-0.297,inactive,Runx2,5,qiagen single siRNA
-0.297,-0.618,0.0244,-0.297,inactive,Runx2,6,qiagen single siRNA
-1.23,-0.988,-1.48,-1.17,inactive,Mrtfb,1,ambion single siRNA
-4.94,-4.94,,-1.17,active,Mrtfb,2,ambion single siRNA
-0.693,-0.211,-1.17,-1.17,inactive,Mrtfb,3,ambion single siRNA
0.62,0.665,0.575,0.62,inactive,Mrtfb,4,qiagen single siRNA
0.369,1.23,-0.496,0.62,inactive,Mrtfb,5,qiagen single siRNA
-0.11,-1.56,1.34,0.62,inactive,Mrtfb,6,qiagen single siRNA
1.23,0.348,2.11,-1.11,inactive,Ripk2,1,ambion single siRNA
-1.11,-0.799,-1.43,-1.11,inactive,Ripk2,2,ambion single siRNA
-3.74,-4.31,-3.18,-1.11,active,Ripk2,3,ambion single siRNA
0.875,0.29,1.46,0.875,inactive,Ripk2,4,qiagen single siRNA
3.69,2.83,4.56,0.875,active,Ripk2,5,qiagen single siRNA
-1.32,-2.03,-0.598,0.875,inactive,Ripk2,6,qiagen single siRNA
2.59,3.59,1.58,0.506,active,Ppp1r3c,1,ambion single siRNA
-1.12,-0.566,-1.68,0.506,inactive,Ppp1r3c,2,ambion single siRNA
-0.0805,1.62,-1.79,0.506,inactive,Ppp1r3c,3,ambion single siRNA
1.59,1.77,1.41,1.7,inactive,Ppp1r3c,4,qiagen single siRNA
1.84,1.61,2.06,1.7,inactive,Ppp1r3c,5,qiagen single siRNA
2.05,2.48,1.63,1.7,active,Ppp1r3c,6,qiagen single siRNA
-0.74,-0.855,-0.625,-2.48,inactive,Grhl1,1,ambion single siRNA
-2.48,-2.38,-2.58,-2.48,active,Grhl1,2,ambion single siRNA
-8.94,-10.1,-7.81,-2.48,active,Grhl1,3,ambion single siRNA
-0.977,-1.14,-0.81,-0.81,inactive,Grhl1,4,qiagen single siRNA
-0.945,-1.17,-0.721,-0.81,inactive,Grhl1,5,qiagen single siRNA
-0.382,-0.382,,-0.81,inactive,Grhl1,6,qiagen single siRNA
1.92,0.354,3.49,0.4,inactive,Dlx6,1,qiagen single siRNA
1.69,0.446,2.94,0.4,inactive,Dlx6,2,qiagen single siRNA
-3.29,-3.47,-3.1,0.4,active,Dlx6,3,qiagen single siRNA
